Source: patent US20020103345A1
Results are given in words; binding and its absence hold for the method and conditions named. Some entries that bind do so weakly or less than the wild type.

Protein sequences, listed by entry. Tags and fused reporters are not part of them. Lines headed by an entry give the natural chain unless they say otherwise; changes in a name come on top. Chains listed by the source or under a name are the forms on record and can include a tag or linker. Residues count along the entry.
UniProt P35918, residues 20-762: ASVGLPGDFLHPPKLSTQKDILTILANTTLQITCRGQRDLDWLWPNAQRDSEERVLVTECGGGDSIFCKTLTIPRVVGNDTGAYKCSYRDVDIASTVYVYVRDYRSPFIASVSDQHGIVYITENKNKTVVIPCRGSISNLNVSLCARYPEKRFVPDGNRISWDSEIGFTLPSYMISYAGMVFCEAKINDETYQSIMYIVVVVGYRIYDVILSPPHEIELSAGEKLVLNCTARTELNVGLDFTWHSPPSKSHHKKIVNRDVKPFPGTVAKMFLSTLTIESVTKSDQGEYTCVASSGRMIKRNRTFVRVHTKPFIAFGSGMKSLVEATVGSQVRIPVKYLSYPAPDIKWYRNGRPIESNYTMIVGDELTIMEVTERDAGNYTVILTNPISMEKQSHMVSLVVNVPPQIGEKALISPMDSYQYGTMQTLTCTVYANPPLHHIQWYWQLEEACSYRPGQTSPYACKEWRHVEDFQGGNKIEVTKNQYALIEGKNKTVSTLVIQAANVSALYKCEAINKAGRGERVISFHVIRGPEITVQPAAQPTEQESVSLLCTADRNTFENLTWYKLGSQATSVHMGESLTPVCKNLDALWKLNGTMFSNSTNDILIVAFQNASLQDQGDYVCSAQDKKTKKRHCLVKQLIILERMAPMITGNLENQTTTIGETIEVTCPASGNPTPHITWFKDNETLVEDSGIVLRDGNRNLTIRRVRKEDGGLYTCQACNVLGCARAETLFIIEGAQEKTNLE
Vascular endothelial growth factor (VEGF165) (P15692, form named): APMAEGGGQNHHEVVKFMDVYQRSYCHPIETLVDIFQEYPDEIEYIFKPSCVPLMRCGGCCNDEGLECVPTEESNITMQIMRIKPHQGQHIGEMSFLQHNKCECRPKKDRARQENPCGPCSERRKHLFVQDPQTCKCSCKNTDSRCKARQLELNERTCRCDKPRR

Target: fetal liver kinase 1 (Flk-1)-AP (mouse) (UniProt P35918)
Test: blocking ELISA, Flk-1-AP on VEGF165-coated plate

binding: binds
Substance: Vascular endothelial growth factor (VEGF165) (from UniProt P15692 27-191) (ligand)
